# Measured values reported in PubChem BioAssay AID540256 (National Center for Advancing Translational Sciences (NCATS), 2011).
# The campaign covered roughly 300,000 compounds. About 3,700 (1.2%) were called active. Inconclusive results, whose numbers are uncertain, are shown with a selection of clear calls. Calls follow the shape of the full dose curve; tested in HEK293 cells. Potencies beside an inconclusive call are fits to weak or partial responses and may not hold up.
# Test: qHTS for Inhibitors of binding or entry into cells for Lassa Virus; also: nearly all actives have a fitted effect of over 50% in size
# Settings: Lassa virus pseudotype entry inhibition, cell reporter; activity change, negative = inhibition: at 37.9 µM (top of the series) unless noted
# % is scaled to controls: 0 for no effect and ±100 for the full control effect; potency is read from the fitted curve at half-maximal effect.
Structure (SMILES),Potency,"activity change, negative = inhibition"
COc1ccc2ccccc2c1CN1CCN(Cc2ccccc2)CC1,"inconclusive: 5.8 µM [inhibitor, partial curve, poor fit]",–
c1cnc2nc(-c3ccc4c(c3)OCO4)cn2c1,–,inactive: -29.1%
COc1ccccc1C=NNC(=O)NN=Cc1ccccc1OC,–,inactive: -6.04% [at 46.1 µM]
CCOC(=O)c1cnc2c(C)c(Cl)ccc2c1N1CCN(CC)CC1,"inconclusive: 7.94 µM [inhibitor, partial curve]",–
O=C(Nc1ccc2c(c1)OCCO2)c1ccc(Cl)c(S(=O)(=O)N2CCOCC2)c1,–,inactive: 37% [at 14.3 µM]
O=C(Nc1cccc2ccccc12)N1CCCN(c2c(Cl)cncc2Cl)CC1,"inconclusive: 10 µM [inhibitor, partial curve]",–
COc1ccccc1OCC(=O)Nc1ccc(Cl)cc1,"inconclusive: 29.1 µM [activator, single point]",–
CC(=O)/C(C#N)=C1\NC(=O)C(Cc2ccc(C)c(C)c2)S1 (configuration not stated),active: 1.3 µM,–
Cc1ccsc1CN1CCN(c2ccccn2)CC1,"inconclusive: 6.51 µM [activator, single point]",–
COc1ccc(-n2c(=O)c3c4c(sc3n(Cc3ccccc3)c2=O)CCC4)c(OC)c1,"inconclusive: 14.1 µM [inhibitor, single point]",–
Cc1nc2ccc(NC(=S)NC3CC3)cc2nc1C,"inconclusive: 11.2 µM [activator, partial curve, poor fit]",–
O=C(c1nc2ccc(Cl)cn2c1CNCC[C@@H]1C[C@@H]2C=C[C@H]1C2)N1CCCCCCC1,–,inactive: -16.7% [at 46.1 µM]
COC(=O)c1ccc(NC(=O)c2cccc(N3C(=O)C4C5C=CC(C6CC56)C4C3=O)c2)cc1 (configuration not stated),"inconclusive: 10 µM [inhibitor, partial curve, poor fit]",–
Cc1cccc(NN=C2c3ccccc3-c3ccccc32)c1,–,inactive: 18.1%
CCOC(=O)CN1C(=O)NC(c2ccc(Br)cc2)C(C(C)=O)=C1C (configuration not stated),inconclusive: 0.0008 µM [activator],–
NC(=O)C1CCN(C(=O)C2CCC(=O)N(CC3CCCCC3)C2)CC1 (configuration not stated),"inconclusive: 3.98 µM [activator, full curve]",–
CC1CCCN(C(=O)C23CCC(C)(C(=O)C2)C3(C)C)C1 (configuration not stated),"inconclusive: 6.51 µM [activator, single point]",–
COC(=O)CC=C1c2ccc(F)cc2[C@@H](OC)[C@@H]1C,"inconclusive: 5.96 µM [inhibitor, single point]",–
Cn1c(-c2ccc(Br)o2)nc2ccccc21,"inconclusive: 31.6 µM [inhibitor, single point]",–
Cc1nc(-c2ccc(F)cc2)c(CC(=O)N2CCN(S(=O)(=O)c3cccc([N+](=O)[O-])c3)CC2)s1,"inconclusive: 28.2 µM [inhibitor, single point]",–
COc1ccc(N2CCN(CC(O)COc3ccc(C)c(C)c3)CC2)cc1 (configuration not stated),"inconclusive: 0.631 µM [inhibitor, full curve, poor fit]",–
CCOc1ccccc1NC(=O)C(OC(=O)c1ccc(CC)cc1)c1ccccc1 (configuration not stated),"inconclusive: 0.0046 µM [inhibitor, full curve, poor fit]",–
CCc1ccc2oc(-c3cccc(NC(=O)c4ccc(-c5cccc([N+](=O)[O-])c5)o4)c3)nc2c1,–,inactive: 16.5% [at 46.1 µM]
CCN(CC)S(=O)(=O)c1ccc(/C=C/C(=O)OCC(=O)NCc2ccc3c(c2)OCO3)cc1,–,inconclusive: 25.8% [activator]

Structure (SMILES),Potency,"activity change, negative = inhibition"
COCCCNC(=O)CNC(=S)N(Cc1ccccc1F)C1CCCCC1,–,inactive: 4.16%
C/C=C/c1ccc(OCCSc2nc(C)cc(=O)[nH]2)c(OC)c1,"inconclusive: 0.73 µM [activator, full curve, poor fit]",–
CCOC(=O)c1sc(NNC(=O)c2ccc(F)cc2)nc1C,"inconclusive: 35.5 µM [inhibitor, single point]",–
CCN1C(C(=O)c2ccccc2)=C(OC(=O)c2ccc(Cl)cc2)c2ccccc2S1(=O)=O,–,inactive: 7.06% [at 46.1 µM]
O=C(NC(c1ccccc1)c1ccccc1)c1ccc(Br)o1,"inconclusive: 15.8 µM [activator, partial curve, poor fit]",–
Cc1nc(N)sc1-c1csc(N(C)c2ccc(O)cc2)n1,–,inactive: -5.86%
COc1cc(NC(=O)CN2CCC(C)CC2)c(C)cc1[N+](=O)[O-],–,inactive: 2.21%
Cn1nnc2cc(C(=O)NCCC3=CCCCC3)ccc21,active: 8.91 µM,–
Cc1cc(Nc2cccc(F)c2)nc(NCc2ccccc2)n1,"inconclusive: 25.1 µM [inhibitor, single point]",–
COc1cccc(CN2c3ccccc3-c3nc(SCC(=O)Nc4cccc(C)c4)ncc3S2(=O)=O)c1,–,inactive: -18.1% [at 46.1 µM]
O=C1c2ccccc2S(=O)(=O)N1CCOc1ccccc1,"inconclusive: 18.3 µM [activator, single point]",–
C=Cc1ccc(CSc2nc(-c3ccc(Cl)cc3)nc3c2Cc2c(CO)cnc(C)c2O3)cc1,–,inactive: 6.06% [at 46.1 µM]
O=C(Nc1ccccc1N1CCCC1)c1ccc(N2CCCC2=O)cc1,–,inactive: -3.4%
Cc1ccc(N(CC(=O)NCc2cccs2)S(=O)(=O)c2cccs2)cc1,"inconclusive: 3.26 µM [activator, partial curve, poor fit]",–
Cc1ccc(CN2CCN(/N=C/C=C/c3ccccc3[N+](=O)[O-])CC2)cc1,–,inactive: -9% [at 46.1 µM]
Cc1cccc(CC(C)NC(=O)c2cc(COc3ccc(C)c(C)c3)on2)n1 (configuration not stated),–,inactive: -18.8%
CCN1C(=O)/C(=C/c2cc(C)n(C)c2C)SC1=Nc1ccc(OC)cc1,"inconclusive: 5.01 µM [inhibitor, partial curve]",–
CN(C)c1nc(N/N=C/c2ccccc2O)nc(Nc2ccc(F)cc2)n1,"inconclusive: 12.6 µM [inhibitor, partial curve, poor fit]",–
CC(=O)c1cccc(OCC(O)CNCC2COc3ccccc3O2)c1 (configuration not stated),–,inactive: -9.36%
Cc1ccc(NC(=O)CN2C(=O)NC(C)(C3CC3)C2=O)cc1S(=O)(=O)N1CCCCC1 (configuration not stated),–,inactive: 10.2%
O=c1[nH]c(=S)[nH]c2sccc12,"inconclusive: 2 µM [activator, full curve, poor fit]",–
COc1ccc2oc(=O)c(C(=O)Nc3cccc(C)c3)cc2c1,–,inactive: -0.124% [at 46.1 µM]
Cc1csc(NC(=O)/C=C/c2ccco2)n1,"inconclusive: 10 µM [inhibitor, partial curve]",–

# As a working copy, part of the list above.
Structure (SMILES),Potency,"activity change, negative = inhibition"
Cn1nnc2cc(C(=O)NCCC3=CCCCC3)ccc21,active: 8.91 µM,–
Cc1cc(Nc2cccc(F)c2)nc(NCc2ccccc2)n1,"inconclusive: 25.1 µM [inhibitor, single point]",–
COc1cccc(CN2c3ccccc3-c3nc(SCC(=O)Nc4cccc(C)c4)ncc3S2(=O)=O)c1,–,inactive: -18.1% [at 46.1 µM]
